Consider one molecule from patent US20030229207A1 (published 2003).

By UniProt entry, the sequences of proteins in these tests, tags left out. Residues count along the entry.
UniProt P06127, residues 25-372: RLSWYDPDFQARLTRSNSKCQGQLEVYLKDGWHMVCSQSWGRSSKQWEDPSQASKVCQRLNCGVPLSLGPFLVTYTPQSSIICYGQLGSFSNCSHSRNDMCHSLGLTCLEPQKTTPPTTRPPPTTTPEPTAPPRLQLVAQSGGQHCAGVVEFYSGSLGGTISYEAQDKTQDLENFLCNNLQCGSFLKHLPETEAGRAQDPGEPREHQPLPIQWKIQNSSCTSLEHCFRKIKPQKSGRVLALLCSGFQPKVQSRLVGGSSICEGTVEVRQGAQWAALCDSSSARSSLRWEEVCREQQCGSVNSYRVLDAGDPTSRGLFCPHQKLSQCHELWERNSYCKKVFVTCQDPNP

The assay concerns the target recombinant soluble CD5 (UniProt P06127). As to the kind of experiment: competition assay on plate-bound recombinant soluble CD5.

No constants are given. Whether binding was seen depends on the method and setting. Some entries that bind do so weakly or less than the wild type.

B1: he3 Fab (Fab, V domains shown)
VH: EIQLVQSGGGLVKPGGSVRISCAASGYTFTNYGMNWVRQAPGKGLEWMGWINTHTGEPTYADSFKGRFTFSLDDSKNTAYLQINSLRAEDTAVYFCTRRGYDWYFDVWGQGTTVTVSS
VL: DIQMTQSPSSLSASVGDRVTITCRASQDINSYLSWFQQKPGKAPKTLIYRANRLESGVPSRFSGSGSGTDYTLTISSLQYEDFGIYYCQQYDESPWTFGGGTKLEIK
notes: Fab (he3 kappa and Fd) expressed in E. coli E104 from pING4628; also called Moderate-Risk Fab
As to B1, the binding entry is on record as “binds”.
